Source: PubChem BioAssay AID1259286 (Sanger Institute, 2017)
Assay: 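Kinases whose loss adds to targeted drug killing of colorectal cancer cells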 (primary screen). System: NCI-H630 human colorectal cancer cells. Reagent: siRNA pool against human genes. Treatment: anchor drugs BYL719 at 1 µM, cetuximab at 5 µg/ml or trametinib at 10 nM, or DMSO vehicle alone; exposure time not given. Measurement: 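Replicate-averaged viability as a fraction of non-targeting control, knock-down-alone robust z-score, and per-drug synergy scores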. Reading the numbers: viability z-score, knock-down alone: higher = more viable cells, weaker knock-down effect; viability vs control, knock-down alone: higher = more viable cells; synergy score with trametinib: higher = stronger synergistic killing with trametinib; synergy score with BYL719: higher = stronger synergistic killing with BYL719; synergy score with cetuximab: higher = stronger synergistic killing with cetuximab. Rule for the call: 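Essential call: robust z-score of viability with siRNA alone lower than -3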. Meaning of the calls: active = essential when knocked down alone; inactive = not essential alone.
In all, the deposit lists 794 reagents; this is a random part of them. 17 of them (2.1%) were called active. 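Calls use knock-down alone only; synergy above 0.15 marked separately; viability seems capped at control level; exposure time not given.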 No sequences are given here. Not stated in the record: the amount of reagent, the time to read-out.

no.	target gene	viability z-score, knock-down alone	viability vs control, knock-down alone (fraction of control)	synergy score with trametinib	synergy score with BYL719	synergy score with cetuximab	Call
1	FRK	0.464	1	-0.0479	0.101	-0.114	inactive
2	HSPB8	-2.66	0.882	-0.0116	-0.0577	-0.128	inactive
3	STK31	0.464	1	0.0397	-0.0336	0.0205	inactive
4	FES	-0.405	0.967	-0.0791	0.0082	0	inactive
5	CDC42BPG	0.0349	0.984	-0.0633	-0.0691	0.0577	inactive
6	CILK1	0.312	0.994	-0.0533	-0.0867	-0.0443	inactive
7	CSNK1G3	0.464	1	-0.0479	-0.0814	-0.0487	inactive
8	TGFBR3	0.464	1	-0.0183	-0.0814	0.0428	inactive
9	STK17A	-1.22	0.936	-0.0051	0.0453	0.0917	inactive
10	TTK	-3.44	0.852	-0.0424	-0.0462	-0.0373	active
11	MAPK3	0.464	1	-0.0479	0.0658	0.1	inactive
12	SMAD2	0.464	1	-0.0479	-0.0814	0.0448	inactive
13	PGK2	0.464	1	-0.0479	-0.0752	-0.0223	inactive
14	CHUK	-0.368	0.969	-0.07	-0.00429	0.0764	inactive
15	GUK1	-0.729	0.955	-0.0168	-0.074	0.0588	inactive
16	CREBBP	-2	0.907	-0.0819	0.0989	-0.0104	inactive
17	GRK5	0.464	1	-0.0479	0.0406	0.0388	inactive
18	EGFR	-0.806	0.952	0.000998	0.042	0.0428	inactive
19	RIPK3	-1.18	0.938	0.00151	-0.0552	-0.0166	inactive
20	FYN	0.464	1	-0.0479	-0.0772	0.0351	inactive
21	LTK	0.464	1	-0.0199	0.0238	0.0737	inactive
22	SHPK	0.464	1	-0.0479	-0.0508	0.00759	inactive
23	MAGI1	0.464	1	-0.0479	0.0707	0.0993	inactive
24	PRPS1	0.464	1	-0.0479	-0.0573	0.0285	inactive
25	TCF12	0.464	1	-0.0479	-0.0814	0.0314	inactive

Only “synergy score with trametinib”, for 4 of the entries above:
GUK1	-0.0168
CREBBP	-0.0819
GRK5	-0.0479
EGFR	0.000998

Additional results follow.
no.	target gene	viability z-score, knock-down alone	viability vs control, knock-down alone (fraction of control)	synergy score with trametinib	synergy score with BYL719	synergy score with cetuximab	Call
26	DLG2	0.464	1	-0.018	-0.0814	0.0317	inactive
27	TLK2	-0.752	0.954	-0.0112	-0.0383	-0.0677	inactive
28	CSF1R	-1.28	0.934	-0.0719	0.0591	0.0298	inactive
29	LMTK3	-0.188	0.975	-0.0444	-0.104	-0.116	inactive
30	PANK4	0.464	1	-0.0169	0.0704	0.0914	inactive
31	CDK18	-3.08	0.866	-0.101	-0.124	0.0524	active
32	AKT3	-0.0377	0.981	-0.0659	0.0389	-0.137	inactive
33	GRK4	0.464	1	-0.0479	-0.0719	0.024	inactive
34	DCLK1	0.464	1	-0.0479	-0.0433	-0.0177	inactive
35	DYRK1B	-1.91	0.91	-0.0749	-0.0971	0.0466	inactive
36	MAP3K20	0.106	0.986	-0.0608	-0.0938	-0.133	inactive
37	PIK3CG	0.314	0.994	-0.00189	-0.0866	0.073	inactive
38	MAP3K8	0.464	1	0.00669	0.0883	0.138	inactive
39	IKBKE	0.464	1	-0.0479	0.0829	0.0675	inactive
40	STRADB	0.464	1	-0.0413	0.0125	-0.121	inactive
41	RPS6KA3	0.464	1	0.00961	-0.0443	-0.0341	inactive
42	PRKD1	0.464	1	-0.0346	-0.0675	-0.002	inactive
43	STK38	-0.507	0.963	-0.00807	0.0399	0.079	inactive
44	PDK4	0.464	1	-0.0479	-0.0304	0.000137	inactive
45	DGKA	0.464	1	-0.0479	-0.0141	0.095	inactive
46	CRIM1	0.464	1	0.0261	-0.00845	0.00763	inactive
47	CDK8	0.464	1	-0.00781	-0.0814	-0.0713	inactive
48	NTN4	0.161	0.989	0.085	0.0197	0.145	inactive
49	ATP23	0.464	1	-0.0334	-0.0174	0.116	inactive
50	FGFR3	0.464	1	-0.0184	0.00484	0.0525	inactive
51	KSR2	0.464	1	-0.0479	0.0529	0.127	inactive
52	SRPK2	0.464	1	-0.0479	-0.00547	0.0636	inactive
53	CSNK2A2	-1.84	0.913	-0.0106	-0.054	0.0327	inactive
54	ROCK1	0.464	1	-0.0479	-0.0814	-0.0975	inactive
55	ATRX	0.464	1	-0.0479	-0.0456	-0.0734	inactive
56	MPP1	-2.38	0.892	-0.104	-0.131	0.0323	inactive
57	TSSK1B	-1.04	0.943	-0.0547	-0.105	0.00603	inactive
58	CSNK2B	0.464	1	-0.0479	-0.0325	0.117	inactive
59	MAPK1	0.464	1	0.0584	-0.003	0.112	inactive
60	DGKG	-1.49	0.926	-0.118	-0.0794	-0.11	inactive
61	MAP3K11	0.464	1	-0.0479	0.0268	0.0583	inactive
62	CERT1	0.464	1	-0.0479	-0.0814	-0.118	inactive
63	EFNB3	0.464	1	0.0148	0.00144	0.11	inactive
